Structures can show the parent of a compound that is named as a salt. The list shows a part of the results. Repeats are few or missing, and single values can be far off.

In this assay the test system is UACC62R (matched melanoma line resistant to BRAF inhibitors). Put plainly: reduction in cell viability relative to untreated/vehicle; higher = more growth inhibition. The note with it: 200 nM; 72 h.
`COc1ccc(C(=O)CC(=O)c2ccc(C(C)(C)C)cc2)cc1` [Avobenzone]: the “reduction in cell viability” value is below 0%.

For the compound `C=CC(=O)N1CCc2ccc(-n3c(=O)ccc4cnc5ccc(-c6cnn(C)c6)cc5c43)cc21`, the “reduction in cell viability” value is below 0%.

Take `O=c1ccc2ccc(O)c(O)c2o1` [Daphnetin]: the “reduction in cell viability” value is below 0%.

In the case of `CO[C@H]1/C=C\C=C(/C)C(=O)NC2=CC(=O)C(NCCN(C)C)=C(C[C@@H](C)C[C@H](OC)[C@H](O)[C@@H](C)/C=C(\C)[C@@H]1OC(N)=O)C2=O` [Alvespimycin hydrochloride], the “reduction in cell viability” value stood at 68.6%.

With `O=C(O)c1cc(O)c2c(c1)C(=O)c1cccc(O)c1C2=O` [Rhein], the “reduction in cell viability” value is below 0%.

For the compound `Cc1[nH]nc2ccc(-c3cncc(OC[C@@H](N)Cc4ccccc4)c3)cc12`, the “reduction in cell viability” value was 7.86%.

With `CN1CCCN(C(=O)c2cccc(-c3ccc(/C=C4/C(=O)Nc5ccc(Cl)cc54)o3)c2)CC1`, the “reduction in cell viability” value was found to be 65.3%.

Turning to `CCCCS(=N)(=O)CCC(N)C(=O)O` (stereo unspecified) [Buthionine sulfoximine], the “reduction in cell viability” value is below 0%.

As for `Cc1[nH]c(/C=C2\C(=O)Nc3ccccc32)c(C)c1CCC(=O)O` [Orantinib], the “reduction in cell viability” value was below 0%.

For the compound `C1CCC(C(CC2CCCCN2)C2CCCCC2)CC1` (stereo unspecified) [Perhexiline], the “reduction in cell viability” value is below 0%.

Turning to `Cc1ccc(S(=O)(=O)N[C@@H](Cc2ccccc2)C(=O)CCl)cc1`, the “reduction in cell viability” value is below 0%.

Take `NC(=O)Cc1cccc(C(=O)c2ccccc2)c1N` [Nepafenac]: the “reduction in cell viability” value was below 0%.

As for `Nc1ncnc2c1c(-c1cccc(OCc3ccccc3)c1)cn2C1CC(CN2CCCC2)C1` (stereo unspecified), the “reduction in cell viability” value is below 0%.

As for `N#CN=C(NCCCCCCOc1ccc(Cl)cc1)Nc1ccncc1`, the “reduction in cell viability” value was 7.25%.

For `O=c1[nH]c(=O)n(C2CCCO2)cc1F` (stereo unspecified) [Tegafur], the “reduction in cell viability” value was below 0%.

For the compound `COc1cc2ncnc(Nc3cccc(Br)c3)c2cc1OC`, the “reduction in cell viability” value was below 0%.

Take `O=C(O)Cc1ccccc1Nc1c(Cl)cccc1Cl` [Diclofenac sodium]: the “reduction in cell viability” value is below 0%.

For the compound `CS(=O)(=O)c1cc(F)cc2c3c(n(Cc4ccc(Cl)cc4)c12)[C@@H](CC(=O)O)CC3` [Laropiprant], the “reduction in cell viability” value was below 0%.

With `Cc1cnc(Nc2ccc(F)cc2Cl)nc1-c1c[nH]c(C(=O)N[C@H](CO)c2cccc(Cl)c2)c1`, the “reduction in cell viability” value was found to be 17.1%.

Take `O=C(O)c1ccc(-n2nc(-c3ccccc3O)nc2-c2ccccc2O)cc1` [Deferasirox]: the “reduction in cell viability” value was below 0%.

Turning to `COCC(=O)NC/C=C/c1ccc2ncnc(Nc3ccc(Oc4ccc(C)nc4)c(C)c3)c2c1`, the “reduction in cell viability” value is below 0%.

Regarding `COc1cccc2c1C(=O)c1c(O)c3c(c(O)c1C2=O)C[C@@](O)(C(=O)CO)C[C@@H]3O[C@H]1C[C@H](N)[C@@H](O)[C@H](C)O1` [Epirubicin hydrochloride], the “reduction in cell viability” value turned out to be 45.4%.

For `Cn1cc(/C=C/C(=O)c2cccc(F)c2)cc1/C=C/C(=O)NO`, the “reduction in cell viability” value was below 0%.

Take `CC(C)(OCc1nn(Cc2ccccc2)c2ccccc12)C(=O)O` [Bindarit]: the “reduction in cell viability” value is below 0%.

In the case of `CC[C@H](CO)Nc1nc(NCc2ccccc2)c2ncn(C(C)C)c2n1` [Seliciclib], the “reduction in cell viability” value was below 0%.

As for `CC(=O)N1CCN(c2ccc(OCc3nn(C)c(C)c3-c3cccc4c(CCCOc5cccc6ccccc56)c(C(=O)O)n(Cc5cccnc5)c34)cc2)CC1`, the “reduction in cell viability” value is below 0%.

On to `NCCCC(N)(C(=O)O)C(F)F` (stereo unspecified) [Eflornithine Hydrochloride], for which the “reduction in cell viability” value was below 0%.

Consider `O=C(Nc1ncc(SCCN2CCCC2)s1)[C@]1(c2ccc(S(=O)(=O)C3CC3)cc2)C[C@H]1C1CCCCC1`, for which the “reduction in cell viability” value was below 0%.

Turning to `Cc1cc(Nc2cc(NC(=O)c3c(Cl)cccc3Cl)ccn2)nc(N)n1`, the “reduction in cell viability” value came out at 61.5%.

Regarding `C#Cc1cccc(Nc2ncnc3cc(OCCOC)c(OCCO)cc23)c1`, the “reduction in cell viability” value was below 0%.

On to `Nc1nc(OCc2ccccc2)c2nc[nH]c2n1` [O6-Benzylguanine], for which the “reduction in cell viability” value was below 0%.

The values are drawn from the supplement of paper PMC9015667.
